Results deposited as PubChem BioAssay AID686938 (Drosophila RNAi Screening Center, 2013).
Assay: 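Looking for CRAC channel components and the factors controlling them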 (primary screen). Cells: Drosophila S2R+ cells. Reagent: long dsRNA against Drosophila genes, about 0.25 µg dsRNA per well, roughly 10,000 cells. Time to read-out: 5 days of knock-down before the calcium assay. Conditions: thapsigargin (SERCA pump blocker) to empty calcium stores; entry signal taken 4 min after adding it. Detection: 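Per-well fluo-4 fluorescence in two replicates, unnormalised, measured in resting cells and 4 min after store depletion by the SERCA blocker thapsigargin; ratio of the two present in few wells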. Scale: calcium entry signal: higher = stronger calcium signal after store depletion; entry to resting ratio: higher = more calcium entry relative to resting level; resting calcium signal: higher = higher resting calcium signal. Hit rule: 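Hit if the duplicate-averaged plate z-score for entry over resting signal is under −3; wells with weak total dye signal (Fmax z < −2) or more than 5 off-targets removed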. Meaning of the calls: active = strongly reduced calcium entry; inactive = no strong reduction.
The screen tested about 23,000 reagents; shown is a random part of those with a known target gene and a result. In the full data, 75 (0.33%) are marked active. 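Raw plate signals without normalisation; calls rest on plate z-scores that were not deposited; ratio present for only 364 wells.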 A plus sign joins genes that one reagent is predicted to hit. No sequences are given here. The record does not give: the dose of the treatment.

Target gene	DRSC id	calcium entry signal, replicate 1 (fluorescence units)	calcium entry signal, replicate 2 (fluorescence units)	entry to resting ratio	resting calcium signal, replicate 1 (fluorescence units)	resting calcium signal, replicate 2 (fluorescence units)	Call
ChT (Choline transporter)	DRSC16296	2.26e7	2.20e7		1.26e7	1.09e7	inactive
spz (spatzle)	DRSC17065	3.04e7	3.85e7		1.38e7	1.67e7	inactive
CG31036	DRSC15055	3.73e7	5.83e7		1.85e7	2.33e7	inactive
CG31036	DRSC15057	4.11e7	6.36e7		1.99e7	2.66e7	inactive
Hr83 (Hormone receptor 83)	DRSC12521	3.10e7	2.69e7		1.60e7	1.39e7	inactive
alphaTub84D (alpha-Tubulin at 84D)	DRSC12623	1.80e7	2.57e7		1.25e7	1.76e7	active
SecS (Sec synthetase)	DRSC12222	4.76e7	3.31e7		2.33e7	1.58e7	inactive
CG32767	DRSC18386	4.19e7	3.33e7		2.03e7	1.56e7	inactive
BORCS5 (BLOC-1 related complex subunit 5)	DRSC19427	2.27e7	2.91e7		1.21e7	1.42e7	inactive
ppk27 (pickpocket 27)	DRSC08168	3.03e7	4.36e7		1.55e7	1.89e7	inactive
ppk27 (pickpocket 27)	DRSC22211	3.85e7	7.66e7		1.75e7	3.13e7	inactive
Grl36b (Gustatory receptor-like 36b)	DRSC01627	3.14e7	3.76e7		1.77e7	1.83e7	inactive
CG31759	DRSC01230	3.75e7	4.72e7		2.01e7	2.02e7	inactive
Rab9D + Rab9Fa + Rab9E	DRSC19853	4.05e7	4.75e7		1.91e7	2.02e7	inactive
CG12926	DRSC06239	3.70e7	4.73e7		1.84e7	2.26e7	inactive
CG12926	DRSC21930	2.84e7	3.96e7		1.50e7	2.20e7	inactive
GckIII (Germinal centre kinase III)	DRSC15729	3.05e7	3.82e7		1.56e7	6.40e7	inactive
Scgalpha (Sarcoglycan alpha)	DRSC03076	2.76e7	3.90e7		1.36e7	1.98e7	inactive
wge (winged eye)	DRSC15246	5.44e7	4.66e7		2.61e7	2.25e7	inactive
wge (winged eye)	DRSC15672	5.27e7	5.77e7		2.28e7	2.32e7	inactive
CSN6 (COP9 signalosome subunit 6)	DRSC16593	2.24e7	2.38e7		1.25e7	1.30e7	inactive
CG5938	DRSC15923	3.52e7	3.79e7		1.65e7	1.70e7	inactive
halo	DRSC00705	4.44e7	6.41e7		2.00e7	2.32e7	inactive
Rad60	DRSC15580	3.54e7	6.06e7		2.18e7	2.30e7	inactive
Ten-m (Tenascin major)	DRSC11664	2.87e7	5.30e7		1.49e7	2.39e7	inactive
Ten-m (Tenascin major)	DRSC11882	2.90e7	4.44e7		1.50e7	2.05e7	inactive
CG8319	DRSC16407	3.52e7	3.56e7		1.77e7	1.97e7	inactive
CG15771	DRSC18077	2.83e7	4.19e7		1.36e7	1.80e7	inactive
Sema5c (Semaphorin 5c)	DRSC11279	3.39e7	4.43e7		1.71e7	2.06e7	inactive
Gapdh1 (Glyceraldehyde 3 phosphate dehydrogenase 1)	DRSC07433	2.26e7	2.87e7		1.19e7	1.29e7	inactive
CHKov1 (CHK domain ov1)	DRSC01566	2.58e7	4.17e7		1.55e7	1.77e7	inactive
CHKov1 (CHK domain ov1)	DRSC01696	3.23e7	4.62e7		1.88e7	2.38e7	inactive
CHKov1 (CHK domain ov1)	DRSC14258	3.18e7	5.79e7		1.74e7	2.30e7	inactive
CHKov1 (CHK domain ov1)	DRSC20937	3.11e7	4.22e7		1.37e7	1.83e7	inactive
FarO (Fatty acyl-CoA reductase in oenocytes)	DRSC18475	3.55e7	6.37e7	2.1	1.72e7	2.62e7	inactive
CG8031	DRSC16364	4.34e7	5.34e7		1.82e7	2.20e7	inactive
slp2 (sloppy paired 2)	DRSC00836	3.80e7	3.25e7		1.92e7	1.62e7	inactive
daw (dawdle)	DRSC00479	3.88e7			2.04e7		inactive
CG17030	DRSC08503	3.19e7	5.95e7		1.49e7	2.33e7	inactive
CG10589	DRSC11629	3.00e7	6.06e7		1.45e7	2.17e7	inactive

Looked up above:
Value for CG31759 [DRSC01230] in “calcium entry signal, replicate 2 (fluorescence units)”: 4.72e7
Under “calcium entry signal, replicate 1 (fluorescence units)”, spz (spatzle) [DRSC17065] is entered as 3.04e7
CG31036 [DRSC15055], calcium entry signal, replicate 2 (fluorescence units): 5.83e7
CSN6 (COP9 signalosome subunit 6) [DRSC16593], calcium entry signal, replicate 1 (fluorescence units): 2.24e7
